PubChem BioAssay AID1053209 – Peter MacCallum Cancer Centre – 2014
The deposit covers about 1,580 reagents; shown is a part drawn at random. 207 of them (13%) were called active. 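Rows are single siRNAs; four siRNAs per gene were tested, a gene counting as confirmed only when at least two agree.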 A number with no mark means an inactive call. The numbers tell different reagents against one gene apart. Not all columns of the deposit are shown.

- Screen: 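Knock-downs that sensitise mouse osteosarcoma cells to doxorubicin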 (follow-up of hits)
- Cell system: mouse primary osteosarcoma cells
- Knock-down reagent: single siRNA against mouse genes, 25 nM (text also states 40 nM)
- Timing: about 120 h (48 h before drug, then 72 h with drug)
- Treatment: doxorubicin 100 nM (about IC30-40), added 48 h after transfection, for 72 h
- Measurement: 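Viability measured by ATP luminescence with and without doxorubicin, each replicate scaled to non-targeting siRNA NT1, averaged over two replicates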
- Scale: viability with doxorubicin, vs NT1: higher = more viable cells under doxorubicin; viability without drug, vs NT1: higher = more viable cells without drug
- Call rule: 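Active when doxorubicin viability is at most 0.7 of NT1 and drug-free viability lies between 0.7 and 1.1, class LC dox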

gene knocked down,reagent no.,combined effect class,"viability with doxorubicin, vs NT1","viability without drug, vs NT1"
Phldb2,1,normal viability with and without drug,0.86,0.9
Phldb2,2,high viability only without drug,1.03,1.16
Phldb2,3,normal viability with and without drug,0.94,0.9
Phldb2,4,normal viability with and without drug,0.97,1.04
Crnkl1,1,low viability with and without drug,0.6,0.6
Crnkl1,2,normal viability with and without drug,0.94,0.87
Crnkl1,3,low viability with and without drug,0.31,0.51
Crnkl1,4,low viability with and without drug,0.2,0.39

3 consecutive entries already listed:
gene knocked down,reagent no.,combined effect class,"viability with doxorubicin, vs NT1","viability without drug, vs NT1"
Phldb2,4,normal viability with and without drug,0.97,1.04
Crnkl1,1,low viability with and without drug,0.6,0.6
Crnkl1,2,normal viability with and without drug,0.94,0.87

The results go on:
gene knocked down,reagent no.,combined effect class,"viability with doxorubicin, vs NT1","viability without drug, vs NT1"
Isy1,1,low viability only with doxorubicin; normal without drug (active),0.4,0.72
Isy1,2,normal viability with and without drug,0.97,0.99
Isy1,3,low viability with and without drug,0.32,0.54
Isy1,4,normal viability with and without drug,0.84,0.99
Rhbdl1,1,normal viability with and without drug,0.72,1
Rhbdl1,2,normal viability with and without drug,0.85,0.89
Rhbdl1,3,normal viability with and without drug,1.02,1.09
Rhbdl1,4,normal viability with and without drug,1.04,0.92
